# Test results: PMC12444467
# The chains behind the UniProt entries cited, without tags or fusion partners. Where a name states a change or a piece, a line headed by the entry shows the natural chain unless it says otherwise. A line that says so, or that is headed by a name, gives the form on record, which may keep a tag or linker.
# UniProt O60331: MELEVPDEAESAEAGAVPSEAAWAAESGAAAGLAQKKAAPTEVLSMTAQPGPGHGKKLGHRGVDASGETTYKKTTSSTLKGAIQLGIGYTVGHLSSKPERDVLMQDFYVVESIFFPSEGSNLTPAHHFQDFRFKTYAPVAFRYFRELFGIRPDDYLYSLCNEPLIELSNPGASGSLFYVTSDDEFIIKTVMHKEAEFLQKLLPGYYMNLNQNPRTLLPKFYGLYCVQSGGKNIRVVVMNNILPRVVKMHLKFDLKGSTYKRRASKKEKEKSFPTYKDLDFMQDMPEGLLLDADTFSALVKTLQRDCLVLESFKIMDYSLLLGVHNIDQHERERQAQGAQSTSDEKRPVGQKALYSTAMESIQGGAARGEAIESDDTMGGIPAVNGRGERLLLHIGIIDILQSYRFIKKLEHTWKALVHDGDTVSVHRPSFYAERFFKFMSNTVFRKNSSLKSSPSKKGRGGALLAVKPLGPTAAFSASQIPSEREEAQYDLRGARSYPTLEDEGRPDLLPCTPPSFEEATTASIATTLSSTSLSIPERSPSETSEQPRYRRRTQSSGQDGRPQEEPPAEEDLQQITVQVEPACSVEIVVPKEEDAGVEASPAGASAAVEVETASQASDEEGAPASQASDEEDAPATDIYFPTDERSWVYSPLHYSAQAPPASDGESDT
# purified recombinant HA-PIPKIγi5 (O60331-3, form named): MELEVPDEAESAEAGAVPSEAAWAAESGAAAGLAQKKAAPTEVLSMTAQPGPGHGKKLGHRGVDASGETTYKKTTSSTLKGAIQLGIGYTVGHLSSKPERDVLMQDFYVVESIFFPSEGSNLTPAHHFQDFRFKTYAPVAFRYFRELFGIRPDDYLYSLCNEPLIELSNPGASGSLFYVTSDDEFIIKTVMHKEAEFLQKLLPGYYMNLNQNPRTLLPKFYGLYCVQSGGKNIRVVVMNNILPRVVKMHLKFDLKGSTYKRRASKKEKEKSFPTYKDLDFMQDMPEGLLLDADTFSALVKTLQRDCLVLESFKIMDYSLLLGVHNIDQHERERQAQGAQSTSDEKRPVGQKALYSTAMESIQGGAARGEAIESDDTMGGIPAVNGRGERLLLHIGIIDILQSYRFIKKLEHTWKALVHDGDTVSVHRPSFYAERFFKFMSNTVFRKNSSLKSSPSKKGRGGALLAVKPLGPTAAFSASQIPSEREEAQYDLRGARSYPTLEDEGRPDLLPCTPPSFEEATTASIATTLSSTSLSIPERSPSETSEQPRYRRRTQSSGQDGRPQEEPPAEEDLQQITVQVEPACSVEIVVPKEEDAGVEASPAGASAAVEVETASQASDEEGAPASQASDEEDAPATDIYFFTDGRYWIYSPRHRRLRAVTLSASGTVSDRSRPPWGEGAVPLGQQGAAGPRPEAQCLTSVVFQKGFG
# HA-tagged PIPKIγi5 truncation mutant PIPKIγi5_675 (O60331-3, form named): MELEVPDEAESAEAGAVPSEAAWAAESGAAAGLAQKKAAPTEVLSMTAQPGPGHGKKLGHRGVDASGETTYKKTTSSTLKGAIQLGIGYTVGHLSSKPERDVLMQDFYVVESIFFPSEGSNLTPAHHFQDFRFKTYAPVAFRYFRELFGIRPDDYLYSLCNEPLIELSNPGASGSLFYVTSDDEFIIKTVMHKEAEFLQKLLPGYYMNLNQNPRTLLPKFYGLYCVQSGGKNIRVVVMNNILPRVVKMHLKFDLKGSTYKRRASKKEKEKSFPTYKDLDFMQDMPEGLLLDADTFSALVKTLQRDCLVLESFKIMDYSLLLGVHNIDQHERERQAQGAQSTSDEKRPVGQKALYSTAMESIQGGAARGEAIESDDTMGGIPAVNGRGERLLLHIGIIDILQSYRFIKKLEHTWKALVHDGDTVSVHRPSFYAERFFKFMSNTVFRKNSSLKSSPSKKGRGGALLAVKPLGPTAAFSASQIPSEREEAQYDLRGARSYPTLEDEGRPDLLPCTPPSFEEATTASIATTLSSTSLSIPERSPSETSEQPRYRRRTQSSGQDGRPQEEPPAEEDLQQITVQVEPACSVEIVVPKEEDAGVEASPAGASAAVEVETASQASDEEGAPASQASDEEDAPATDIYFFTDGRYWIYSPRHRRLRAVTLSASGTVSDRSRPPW
# UniProt P46937: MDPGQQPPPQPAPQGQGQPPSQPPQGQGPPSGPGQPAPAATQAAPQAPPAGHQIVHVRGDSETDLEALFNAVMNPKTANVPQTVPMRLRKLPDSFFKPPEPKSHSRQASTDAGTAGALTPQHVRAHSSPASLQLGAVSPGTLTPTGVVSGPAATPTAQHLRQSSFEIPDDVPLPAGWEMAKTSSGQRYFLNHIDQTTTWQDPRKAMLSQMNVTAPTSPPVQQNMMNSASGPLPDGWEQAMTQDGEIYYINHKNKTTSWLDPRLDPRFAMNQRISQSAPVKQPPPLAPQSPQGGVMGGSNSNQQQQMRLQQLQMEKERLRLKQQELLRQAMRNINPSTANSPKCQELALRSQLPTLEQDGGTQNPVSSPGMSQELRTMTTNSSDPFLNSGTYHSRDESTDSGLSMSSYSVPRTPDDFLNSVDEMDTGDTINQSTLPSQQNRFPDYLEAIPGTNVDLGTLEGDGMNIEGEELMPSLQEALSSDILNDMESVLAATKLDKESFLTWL
# These are yes or no findings as the source states them, for the method shown. For part of these data: Binding seen in cells or lysates may run through a third protein. Some binding calls cover weakened binding; strength is not graded here.
# How the values were obtained:
# [1] = target: HA-tagged PIPKIγi5 (type I gamma phosphatidylinositol phosphate kinase i5) (human) (UniProt O60331); experiment: co-IP; two tagged proteins coexpressed in cells (HEK-293 where stated); immunoprecipitation with HA or Myc antibody and protein G-Sepharose, 4 h at 4 °C; lysis in 25 mM Hepes pH 7.2, 150 mM NaCl, 0.25% NP-40, 1 mM MgCl2; Western blot
# [2] = target: Myc-tagged PIPKIγi2 (human) (UniProt O60331); experiment: as above
# [3] = target: Myc-tagged PIPKIγi5 (human) (UniProt O60331); experiment: as above
# [4] = target: HA-tagged PIPKIγi5 truncation mutant PIPKIγi5_675 (human) (UniProt O60331); experiment: as above
# [5] = target: endogenous YAP1 (human (endogenous in CAL27)) (UniProt P46937); experiment: co-IP; endogenous YAP1 immunoprecipitated with YAP1 antibody from CAL27 cell lysates; endogenous PIPKIγi5 detected by Western blot
# [6] = target: purified recombinant HA-PIPKIγi5 (human) (UniProt O60331); experiment: solid-phase binding assay; GST-14-3-3 or HA-PIPKIγi5 (1 μg) coated on MaxiSorp 96-well plates, blocked with 1% fatty acid-free BSA in PBS, with or without phosphoinositide (PI4,5P2; control PI3,5P2) 30 min, then 1 μg FLAG-YAP1 1 h at room temperature; bound proteins eluted and blotted; both purified
# [7] = target: purified recombinant FLAG-YAP1 (YAP1 human recombinant protein, OriGene) (human) (UniProt P46937); experiment: pull-down; in vitro binding assay: 1 μg FLAG-YAP1 and 1 μg HA-PIPKIγi5 mixed in 20 mM Tris-HCl pH 7.5, 0.3 M NaCl, 1 mM DTT, 4 °C 2 h, then anti-FLAG magnetic beads 4 °C 6 h; Western blot; both purified
substance,measurement,setting,value
FLAG-tagged YAP1 (Yes-associated protein 1) (from UniProt P46937 1-504),binding,[1],binds
same,binding,[2],binds weakly
same,binding,[3],binds
same,binding,[4],binds
HA-YAP1-C (264-504) (from UniProt P46937 264-504) (domain or fragment),binding,[3],binds
HA-YAP1-N (1-263) (from UniProt P46937 1-263) (domain or fragment),binding,[3],no binding
endogenous PIPKIγi5 (from UniProt O60331-3 1-707) (enzyme),binding,[5],binds
"purified recombinant FLAG-YAP1 (YAP1 human recombinant protein, OriGene) (from UniProt P46937 1-504)",binding,[6],binds
purified recombinant HA-PIPKIγi5 (from UniProt O60331-3 1-707) (enzyme),binding,[7],binds
